According to US20100093076A1, “SOLUBLE IL-27 RECEPTOR” (priority 2006, published 2010):
For some of these results: The name of at least one read-out is uncertain. For some of these results: At least one compound was matched to its structure with a doubt left.

Columns and labels:
[1] = system: acute graft-vs-host disease; experiment: Mouse model of acute graft-vs-host disease; assay type: in vivo; settings: acute GVHD, BDF1 recipients, day 18
Experimental: Efficacy of IL-27 antagonists was assayed in a mouse model of acute graft-vs-host disease (Durie et al., J. Clin. Invest. 94:1333-1338, 1994). Parental mice (C57BL/6; n=12) were euthanized, and their spleens were collected. The pooled spleens were smashed using two glass slides to dissociate splenic cells. Lysis buffer was added to the splenocyte suspension to remove red blood cells. The cells were washed in RPMI 1640 (10% FBS) medium and resuspended in an appropriate amount of PBS to make a cell concentration of 300 million cells/ml. Protein treatments were administered by intraperitoneal injection every other day beginning on day-1 and continuing until day 15. Dexamethasone (DEX) was administered by injection daily on days 0 through 6. On day 0, 75 million donor splenic lymphocytes from B6 mice (250.micro.1 per injection) were injected intravenously into recipient mice (C57BL/6×DBA/2 F1 (BDF1); n=10 per group) mice. Mice were monitored 3 times a week for changes in body weight and any signs of moribundity. Mice that lost >20% of their initial body weight were euthanized. Otherwise, mice were sacrificed 18 days after the cell transfer. Spleens were collected, and a CTL-specific lysis assay using P815 cells was performed as a quantitative measurement of acute GVHD. […]

[2] = Pharmacokinetics of soluble receptors in female C57B1/6 mice (serum ELISA, noncompartmental analysis); assay type: in vivo, mouse; settings: for Vz/F: 100 μg
Experimental: Studies were performed to evaluate the pharmacokinetics of the mouse (IL-27RAm(mFc1)) and human (IL-27RA-Fc5) soluble receptors in female C57B1/6 mice.
Serum was generated from each sample and analyzed by a qualified enzyme-linked immunosorbant assay (ELISA). The resulting mean serum concentration versus time profiles were then subjected to noncompartmental pharmacokinetic analyses. The following pharmacokinetic parameters were calculated: C0 and Cmax (extrapolated concentration at time zero and maximum serum concentration, respectively), Tmax (time to achieve maximum concentration), t1/2 λz (terminal half-life), AUC0-t (area under the concentration versus time curve from time zero to the last measurable time point), AUCINF (area under the concentration versus time curve extrapolated to infinity), C1 or C1/F (clearance or clearance divided by bioavailable fraction, respectively), VSS or VZ/F (steady state volume of distribution or volume of distribution divided by the bioavailable fraction, respectively), and F (bioavailable fraction).

| Molecule | host spleen cells, CD4+T cells, and Treg cells [1] | Vz/F ([2]; IP) [mL] | Vz/F ([2]; SC) [mL] | terminal half-life (t1/2 λz) compared with the mouse Fc1 fusion protein ([2]; female C57B1/6 mice) |
| --- | --- | --- | --- | --- |
| C[C@@H]1C[C@H]2[C@@H]3CCC4=CC(=O)C=C[C@]4(C)[C@@]3(F)[C@@H](O)C[C@]2(C)[C@@]1(O)C(=O)CO [dexamethasone, Dexamethasone, reference compound] | did not maintain host spleen cells, CD4+T cells, or Treg cells | – | – | – |
| human IL-27RA-Fc5: Extracellular domain of human IL27RA (amino acids 1 to 512 of SEQ ID NO:3) fused to Fc5, effector minus human gamma1 Fc; SEQ ID NO:16 | – | 2.96 | 3.50 | much longer terminal half-life |
